Measurements reported in PubChem BioAssay AID602196 (INSERM, 2012)
Assay: 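Genes whose knock-down alters cisplatin killing of lung cancer cells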. System: human A549 lung cancer cells. Knock-down reagent: siRNA pair against human genes. Timing: 48 h transfection before cisplatin; time from cisplatin to read-out not stated. Conditions: cisplatin at a dose killing half of control-siRNA cells; exact dose and duration not given. Detection: 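Cisplatin cell death as a shift from the 50% death seen with control siRNA; siRNAs toxic or growth-blocking alone scored 0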. Scale: two-siRNA summed score (-2 to +2): higher = both siRNAs protect from cisplatin killing; -2 means both sensitise; mean protection from cisplatin (shift in death): higher = protection from cisplatin killing. Rule for the call: 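siRNAs harmful alone (LDH or WST-1) get 0; others get +1 for less and -1 for more cisplatin killing; genes are active when the two siRNAs give the same sign, summing to ±2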. Calls: active = both siRNAs shift cisplatin killing the same way; inactive = no consistent shift, or siRNA harmful alone.
Shown is an unselected part of about 23,000 reagents. In the full data, 455 (2%) are marked active. 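Active includes both protection and sensitisation; some change values fall well beyond the stated -50 to +50 range.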 Further read-outs or replicates are left out here. Reagent sequences are not shown. Not given: the amount of reagent.

CLTRN (collectrin, amino acid transport regulator) gave two-siRNA summed score (-2 to +2) = 0; mean protection from cisplatin (shift in death) (%) = 8.7; inactive. Against MOCOS (molybdenum cofactor sulfurase), the entry reads two-siRNA summed score (-2 to +2) = 1; mean protection from cisplatin (shift in death) (%) = 14; inactive. After knock-down of PTPN2 (protein tyrosine phosphatase non-receptor type 2) the results were two-siRNA summed score (-2 to +2) = 1; mean protection from cisplatin (shift in death) (%) = 5.9; inactive. ALMS1 (ALMS1 centrosome and basal body associated protein) showed two-siRNA summed score (-2 to +2) = 1; mean protection from cisplatin (shift in death) (%) = 6.6; inactive. Depletion of RGS22 (regulator of G protein signaling 22) came out at: two-siRNA summed score (-2 to +2) = 0; mean protection from cisplatin (shift in death) (%) = -1.4; inactive. For CADM4 (cell adhesion molecule 4), the values are two-siRNA summed score (-2 to +2) = 0; mean protection from cisplatin (shift in death) (%) = 8.2; inactive.

After knock-down of LINC02487 (long independently transcribed non-coding RNA 2487) the results were two-siRNA summed score (-2 to +2) = 0; mean protection from cisplatin (shift in death) (%) = -0.9; inactive. For INVS (inversin), the values are two-siRNA summed score (-2 to +2) = 1; mean protection from cisplatin (shift in death) (%) = 9.6; inactive. TBR1 (T-box brain transcription factor 1) showed two-siRNA summed score (-2 to +2) = -1; mean protection from cisplatin (shift in death) (%) = -7.9; inactive. LOC441125 scored two-siRNA summed score (-2 to +2) = 0; mean protection from cisplatin (shift in death) (%) = 11.5; inactive. Knock-down of THAP7 (THAP domain containing 7) resulted in: two-siRNA summed score (-2 to +2) = 0; mean protection from cisplatin (shift in death) (%) = 7.5; inactive. Silencing of LOC441931 resulted in: two-siRNA summed score (-2 to +2) = 0; mean protection from cisplatin (shift in death) (%) = 4.7; inactive.

Knock-down of SNORC came out at: two-siRNA summed score (-2 to +2) = 0; mean protection from cisplatin (shift in death) (%) = 9.9; inactive. MPLKIP (M-phase specific PLK1 interacting protein) showed two-siRNA summed score (-2 to +2) = 1; mean protection from cisplatin (shift in death) (%) = 9.1; inactive. Silencing of LOC388300 gave: two-siRNA summed score (-2 to +2) = 0; mean protection from cisplatin (shift in death) (%) = 1.2; inactive. Against BTBD2 (BTB domain containing 2) the deposit lists two-siRNA summed score (-2 to +2) = 0; mean protection from cisplatin (shift in death) (%) = -2.8; inactive. ZBTB46 (zinc finger and BTB domain containing 46) gave two-siRNA summed score (-2 to +2) = 0; mean protection from cisplatin (shift in death) (%) = 0.5; inactive. Against MGAT5B, the entry reads two-siRNA summed score (-2 to +2) = 0; mean protection from cisplatin (shift in death) (%) = 10.3; inactive.

In a second layout: 5 of the entries above.
| Gene | two-siRNA summed score (-2 to +2) | mean protection from cisplatin (shift in death) (%) | activity call |
| --- | --- | --- | --- |
| TBR1 (T-box brain transcription factor 1) | -1 | -7.9 | inactive |
| LOC441125 | 0 | 11.5 | inactive |
| THAP7 (THAP domain containing 7) | 0 | 7.5 | inactive |
| LOC441931 | 0 | 4.7 | inactive |
| SNORC | 0 | 9.9 | inactive |

Additional entries:
With knock-down of GRIK3 (glutamate ionotropic receptor kainate type subunit 3), the record shows two-siRNA summed score (-2 to +2) = 0; mean protection from cisplatin (shift in death) (%) = -11.8; inactive. Against TOMM5 (translocase of outer mitochondrial membrane 5) the deposit lists two-siRNA summed score (-2 to +2) = 1; mean protection from cisplatin (shift in death) (%) = 15.7; inactive. For NUP42 (nucleoporin 42), the entry reads two-siRNA summed score (-2 to +2) = 0; mean protection from cisplatin (shift in death) (%) = -1.7; inactive. After knock-down of LOC441559 the results were two-siRNA summed score (-2 to +2) = 0; mean protection from cisplatin (shift in death) (%) = 21.2; inactive. For GPR55 (G protein-coupled receptor 55), the values are two-siRNA summed score (-2 to +2) = 0; mean protection from cisplatin (shift in death) (%) = 6.4; inactive. Knock-down of TLE6 (TLE family member 6, subcortical maternal complex member) came out at: two-siRNA summed score (-2 to +2) = 0; mean protection from cisplatin (shift in death) (%) = -3.6; inactive.

With knock-down of WDR46 (WD repeat domain 46), the screen gave two-siRNA summed score (-2 to +2) = 0; mean protection from cisplatin (shift in death) (%) = 7.5; inactive. STH (saitohin) showed two-siRNA summed score (-2 to +2) = 0; mean protection from cisplatin (shift in death) (%) = 4.8; inactive. After knock-down of OR1L4 (olfactory receptor family 1 subfamily L member 4), the screen gave two-siRNA summed score (-2 to +2) = 0; mean protection from cisplatin (shift in death) (%) = -1.8; inactive. With knock-down of LOC441163, the record shows two-siRNA summed score (-2 to +2) = 1; mean protection from cisplatin (shift in death) (%) = 4.6; inactive. Depletion of NBR2 (neighbor of BRCA1 lncRNA 2) resulted in: two-siRNA summed score (-2 to +2) = 0; mean protection from cisplatin (shift in death) (%) = -0.8; inactive. With knock-down of VPS16 (VPS16 core subunit of CORVET and HOPS complexes), the screen gave two-siRNA summed score (-2 to +2) = 0; mean protection from cisplatin (shift in death) (%) = -0.6; inactive.

CCBE1 (collagen and calcium binding EGF domains 1) gave two-siRNA summed score (-2 to +2) = 0; mean protection from cisplatin (shift in death) (%) = 3.8; inactive.
